Laboratory results taken from publication doi:10.1101/2022.08.09.503213 (bioRxiv, 2022).
These are yes or no findings as the source states them, for the method shown.

Molecular target: IFT-A(122^TULPmut): human IFT-A complex with IFT122 E1052R/Y1058A/S1062A/E1217R/D1218R (human)
Test: SEC

B1: TULP3, full-length human (from TULP3^ZZ, TEV-cleaved) (protein, UniProt O75386 1-442)
chain: MEASRCRLSPSGDSVFHEEMMKMRQAKLDYQRLLLEKRQRKKRLEPFMVQPNPEARLRRAKPRASDEQTPLVNCHTPHSNVILHGIDGPAAVLKPDEVHAPSVSSSVVEEDAENTVDTASKPGLQERLQKHDISESVNFDEETDGISQSACLERPNSASSQNSTDTGTSGSATAAQPADNLLGDIDDLEDFVYSPAPQGVTVRCRIIRDKRGMDRGLFPTYYMYLEKEENQKIFLLAARKRKKSKTANYLISIDPVDLSREGESYVGKLRSNLMGTKFTVYDRGICPMKGRGLVGAAHTRQELAAISYETNVLGFKGPRKMSVIIPGMTLNHKQIPYQPQNNHDSLLSRWQNRTMENLVELHNKAPVWNSDTQSYVLNFRGRVTQASVKNFQIVHKNDPDYIVMQFGRVADDVFTLDYNYPLCAVQAFGIGLSSFDSKLACE
  binding: no binding
